From publication doi:10.1101/2024.01.31.578330 come the findings set out here.

These are yes or no findings as the source states them, for the method shown. In cells and extracts the contact can be indirect. These calls come from enrichment with a bait or labelling near it, and not all partners need be listed. Tags and fused reporters may be left off the sequences shown.

The target in this experiment is T1, His-PAR-5 (C. elegans) (UniProt P41932).
T1 sequence: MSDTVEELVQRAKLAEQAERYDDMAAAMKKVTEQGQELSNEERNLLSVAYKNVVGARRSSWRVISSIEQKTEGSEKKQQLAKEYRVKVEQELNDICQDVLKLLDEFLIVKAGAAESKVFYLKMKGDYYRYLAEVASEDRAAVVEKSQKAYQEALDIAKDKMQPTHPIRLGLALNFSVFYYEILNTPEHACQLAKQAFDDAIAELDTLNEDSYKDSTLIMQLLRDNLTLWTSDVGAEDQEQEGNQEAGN
Briefly: affinity purification with mass spectrometry.

B1: PhzA1 (protein, UniProt Q9HWH1 1-162)
chain: MNGQRYRETPLDIERLRRLNRATVERYMAMKGAERLQRHSLFVEDGCAGNWTTESGEPLVFRGHESLRRLAEWLERCFPDWEWHNVRIFETEDPNHFWVECDGRGKALVPGYPQGYCENHYIHSFELENGRIKRNREFMNPIQKLRALGIAVPQIKRDGIPT
For the molecule B1, the binding result is reported as “binds”.

B2: AmpR (protein, UniProt P24734 1-296)
chain: MVRPHLPLNALRAFEASARHLSFTRAAIELCVTQAAVSHQVKSLEERLGVALFKRLPRGLMLTHEGESLLPVLCDSFDRIAGLLERFEGGHYRDVLTVGAVGTFTVGWLLPRLEDFQARHPFIDLRLSTHNNRVDIAAEGLDYAIRFGGGAWHGTEALALFEAPLTVLCCPEVAAQLHSPADLLQHTLLRSYRADEWPLWFQAAGLPAHAPLTRSIVFDTSLAMLEAARQGVGVALAPAAMFARQLASESIRRPFATEVSTGSYWLTRLQSRGETSAMLAFRGWLLEMAAVEARGR
On to B2, for which the binding result was “binds”.
